The results in this text go back to article PMC10879784.

Test [1] concerns the target T1, GFP-AGO1 (ARGONAUTE1, Arabidopsis thaliana) (Arabidopsis thaliana), O04379.
T1 chain: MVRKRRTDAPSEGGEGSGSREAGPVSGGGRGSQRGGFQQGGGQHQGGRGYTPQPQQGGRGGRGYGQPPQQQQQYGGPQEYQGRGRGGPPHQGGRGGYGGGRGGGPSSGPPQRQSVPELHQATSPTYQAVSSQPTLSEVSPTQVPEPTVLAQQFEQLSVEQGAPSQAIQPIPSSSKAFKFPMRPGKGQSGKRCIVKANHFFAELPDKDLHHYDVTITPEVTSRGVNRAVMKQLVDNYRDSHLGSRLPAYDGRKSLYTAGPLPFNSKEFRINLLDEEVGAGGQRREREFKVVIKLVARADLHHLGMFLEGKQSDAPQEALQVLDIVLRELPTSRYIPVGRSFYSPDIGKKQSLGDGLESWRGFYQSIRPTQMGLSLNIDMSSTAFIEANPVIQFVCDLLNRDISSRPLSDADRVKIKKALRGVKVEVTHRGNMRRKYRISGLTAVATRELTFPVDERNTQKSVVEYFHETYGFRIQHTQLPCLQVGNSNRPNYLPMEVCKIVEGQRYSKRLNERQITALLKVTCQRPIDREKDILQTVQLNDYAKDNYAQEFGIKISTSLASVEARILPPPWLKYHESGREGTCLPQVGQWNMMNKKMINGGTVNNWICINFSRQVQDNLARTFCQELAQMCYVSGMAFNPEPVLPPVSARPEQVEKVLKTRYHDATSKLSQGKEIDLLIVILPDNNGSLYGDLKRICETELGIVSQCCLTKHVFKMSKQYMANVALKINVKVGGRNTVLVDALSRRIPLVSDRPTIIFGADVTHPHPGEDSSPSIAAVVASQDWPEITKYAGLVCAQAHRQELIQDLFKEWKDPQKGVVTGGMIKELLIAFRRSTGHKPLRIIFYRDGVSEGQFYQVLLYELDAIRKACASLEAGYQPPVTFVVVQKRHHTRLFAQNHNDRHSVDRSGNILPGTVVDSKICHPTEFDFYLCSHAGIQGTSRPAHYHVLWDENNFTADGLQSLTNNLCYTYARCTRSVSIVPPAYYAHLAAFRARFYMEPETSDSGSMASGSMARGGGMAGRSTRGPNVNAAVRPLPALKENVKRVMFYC
The test is described as follows: affinity purification with mass spectrometry; GFP-AGO1 immunoprecipitated with magnetic microbeads coupled to GFP antibodies (μMACS GFP Isolation Kit) from 7-day-old pAGO1:GFP-AGO1 ago1-27 seedlings after 1 h HS at 37°C; lysis buffer 50mM Tris-HCl pH7,5, 50mM NaCl, 0,25% IGEPAL CA-630, 2mM MgCl2, 5mM DTT; control IPs in Col-0 and the p35S:GFP-3Flag line; nanoLC-MS/MS. The note with it: remark: other sources report otherwise.

The target of test [2] is T2, GFP-AGO1 (ARGONAUTE1, Arabidopsis thaliana) (Arabidopsis thaliana) (UniProt O04379).
T2 sequence: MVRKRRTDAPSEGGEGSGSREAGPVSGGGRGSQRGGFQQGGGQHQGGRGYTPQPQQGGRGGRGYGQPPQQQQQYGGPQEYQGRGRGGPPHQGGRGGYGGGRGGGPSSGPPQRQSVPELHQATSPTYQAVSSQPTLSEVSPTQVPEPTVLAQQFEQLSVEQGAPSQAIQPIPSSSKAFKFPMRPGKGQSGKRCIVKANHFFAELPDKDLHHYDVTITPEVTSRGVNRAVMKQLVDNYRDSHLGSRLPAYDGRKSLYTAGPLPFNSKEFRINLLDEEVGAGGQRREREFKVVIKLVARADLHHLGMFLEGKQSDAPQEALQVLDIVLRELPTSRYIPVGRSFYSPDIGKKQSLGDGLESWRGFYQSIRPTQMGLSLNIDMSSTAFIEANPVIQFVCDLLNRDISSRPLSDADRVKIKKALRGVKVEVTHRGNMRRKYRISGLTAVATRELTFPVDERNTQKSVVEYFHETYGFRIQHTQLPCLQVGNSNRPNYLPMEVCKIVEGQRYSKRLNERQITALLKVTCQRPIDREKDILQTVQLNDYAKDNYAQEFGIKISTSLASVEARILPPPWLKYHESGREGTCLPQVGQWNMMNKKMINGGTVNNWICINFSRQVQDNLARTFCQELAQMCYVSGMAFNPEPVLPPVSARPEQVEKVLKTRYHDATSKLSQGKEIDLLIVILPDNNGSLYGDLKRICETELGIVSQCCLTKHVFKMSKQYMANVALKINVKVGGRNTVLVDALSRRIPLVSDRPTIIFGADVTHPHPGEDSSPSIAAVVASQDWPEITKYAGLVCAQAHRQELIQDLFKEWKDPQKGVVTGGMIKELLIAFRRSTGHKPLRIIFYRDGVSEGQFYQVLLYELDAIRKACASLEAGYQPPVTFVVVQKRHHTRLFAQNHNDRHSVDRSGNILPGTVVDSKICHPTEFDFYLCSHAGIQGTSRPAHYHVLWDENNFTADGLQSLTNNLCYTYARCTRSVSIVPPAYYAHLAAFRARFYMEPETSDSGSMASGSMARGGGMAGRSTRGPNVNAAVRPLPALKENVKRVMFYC
The description is as above.

Results are given in words; binding and its absence hold for the method and conditions named. In cells and extracts the contact can be indirect. Here binding means that the protein was enriched with, or labelled near, the bait; the list need not be complete. Where a sequence is shown, tags or fusion partners need not be part of it.

B1: UP-…1 (UPF1), Q9FJR0 1-1254 (protein)
chain: MDSQQSDLFDTASQPDTVADEYTFLEFNTQGDSEFDYQDFGSPTAWPTPSDSISIADVADRGEGGAAADHHSEASSPSSLSAGAGNGAKVGRGGVGGSGGVSSSSQVDALAAGVGNLNFEETGDDDGFDYGKNDFTEHACKYCGISNPACVVRCNVASCRKWFCNSRGNTSGSHIVNHLVRAKHKEVCLHRDSPLGETILECYNCGCRNVFLLGFISAKTDSVVVLLCRDPCLNVNALKDMNWDLSQWCPLIDDRCFLPWLVKVPSEQEQLRARQISAQQINKIEELWKTNPDATLEDLEKPGVDDEPQPVQPKYEDAYQYQNVFAPLIKLEADYDKMMKESQSKENLTVRWDIGLNKKRVAYFVFPKEENELRLVPGDELRLRYSGDAVHPSWQSVGHVIKLTAQEEVALELRANQGVPIDVNHGFSVDFVWKSTSFDRMQGAMKNFAVDETSVSGYIYHQLLGHEVEAQMVRNTLPRRFGVPGLPELNASQVNAVKSVLQKPISLIQGPPGTGKTVTSAAIVYHMAKQGQGQVLVCAPSNVAVDQLAEKISATGLKVVRLCAKSREAVSSPVEYLTLHYQVRHLDTSEKSELHKLQQLKDEQGELSSSDEKKYKNLKRATEREITQSADVICCTCVGAADLRLSNFRFRQVLIDESTQATEPECLIPLVLGVKQVVLVGDHCQLGPVIMCKKAARAGLAQSLFERLVTLGIKPIRLQVQYRMHPALSEFPSNSFYEGTLQNGVTIIERQTTGIDFPWPVPNRPMFFYVQLGQEEISASGTSYLNRTEAANVEKLVTAFLKSGVVPSQIGVITPYEGQRAYIVNYMARNGSLRQQLYKEIEVASVDSFQGREKDYIILSCVRSNEHQGIGFLNDPRRLNVALTRARYGIVILGNPKVLSKQPLWNGLLTHYKEHECLVEGPLNNLKQSMVQFQKPRKIYNDRRLFYGGGAGMIGNDNFGSGNPNADRRGSRGRAGGSYLPSGPPNGARPGLHPAGYPIPRVPLSPFPGGPPSQPYAIPTRGPVGAVPHAPQPGNHGFGAGRGTSVGGHLPHQQATQHNVGTIGPSLNFPLDSPNSQPSPGGPLSQPGYGSQAFRDGFSMGGISQDFLADDIKSQGSHDPYNMADFATQASPGGFAVDYATQGAHGAFPGNFMNQNSQGGYSRFSGINDFMSQEYMAHGGQGLFTQAGFIDSSQDDGQQNPYGVNNPNLQSQGLPNSLYSQPFAHYNTQPLNLSGPQQSQPNQSSQNPKHPYNG
For B1, in test [1], the binding entry was “binds”.

B2: RNA helicase RH53 (protein, UniProt Q9LUW5 82-616)
chain: GFAISESSERRVGDSESVGGDGLAISELGISPEIVKALSSKGIEKLFPIQKAVLEPAMEGRDMIGRARTGTGKTLAFGIPIIDKIIKYNAKHGRGRNPLCLVLAPTRELARQVEKEFRESAPSLDTICLYGGTPIGQQMRQLDYGVDVAVGTPGRVIDLMKRGALNLSEVQFVVLDEADQMLQVGFAEDVEIILEKLPEKRQSMMFSATMPSWIRSLTKKYLNNPLTVDLVGDSDQKLADGITTYSIIADSYGRASIIGPLVTEHAKGGKCIVFTQTKRDADRLSYALARSFKCEALHGDISQSQRERTLAGFRDGHFNILVATDVAARGLDVPNVDLIIHYELPNNTETFVHRTGRTGRAGKKGSAILIYSQDQSRAVKIIEREVGSRFTELPSIAVERGSASMFEGIGSRSGGSFGGGMRDRGSSFGGRSGGGGYGGSSGGYGGGRSGGSSNRYSGDSDRSGFGSFGMRSPEGYGSDRSSQSGGRSSFGGGRSGGSSNNRSSGFGDFGSDRSSQSGGRSSFGGFGSNDGKRSY
For B2, in test [2], the binding entry is recorded as “binds”.

B3: RNA helicase RH8 (protein, UniProt Q8RXK6 1-505)
chain: MNNRGRYPPGIGAGRGAFNPNPNYQSRSGYQQHPPPQYVQRGNYAQNHQQQFQQAPSQPHQYQQQQQQQQQWLRRGQIPGGNSNGDAVVEVEKTVQSEVIDPNSEDWKARLKLPAPDTRYRTEDVTATKGNEFEDYFLKRELLMGIYEKGFERPSPIQEESIPIALTGRDILARAKNGTGKTAAFCIPVLEKIDQDNNVIQAVIIVPTRELALQTSQVCKELGKHLKIQVMVTTGGTSLKDDIMRLYQPVHLLVGTPGRILDLTKKGVCVLKDCSVLVMDEADKLLSQEFQPSVEHLISFLPESRQILMFSATFPVTVKDFKDRFLTNPYVINLMDELTLKGITQFYAFVEERQKIHCLNTLFSKLQINQSIIFCNSVNRVELLAKKITELGYSCFYIHAKMLQDHRNRVFHDFRNGACRNLVCTDLFTRGIDIQAVNVVINFDFPKNAETYLHRVGRSGRFGHLGLAVNLITYEDRFNLYRIEQELGTEIKQIPPHIDQAIYCQ
For B3, in test [2], the binding entry is “binds”.
